In patent US20120258971A1, “THERAPEUTIC AGENT FOR CHRONIC PAIN” (OTSUKA PHARMACEUTICAL CO., LTD., priority 2009, published 2012):
Some of these results come from one statement about several compounds together.

System: chronic occipital-cervical pain
Assay: Pain intensity (numerical rating scale, NRS) in a chronic pain patient during drug treatment
Format: in vivo, human
Conditions: fluvoxamine from 50 mg/day oral, gradually increased, in addition to morphine; from 4th week of first month
Method: Morphine, fluvoxamine, aripiprazole, and other drugs were administered for about 11 months to a patient who was diagnosed as a chronic pain sufferer with chronic occipital-cervical pain that had continued for ten years or more. The intensity of the pain in the patients' occipital-cervical region (neck) was evaluated over time.
The intensity of pain was evaluated using a numerical rating scale (NRS) in which pain was orally reported on an 11-step scale (0 to 10). This evaluation method numerically expresses (quantifies) the degree of pain on a scale of 0 (no pain) to 10 (worst conceivable pain). This method provides a good reflection of the degree of pain of a patient before and after treatment.
From the 4th week of the first month, in addition to morphine, oral administration of fluvoxamine (Depromel tablets; produced by Meiji Seika Pharma Co., Ltd.) in a dose of 50 mg/day was started.
Then, from the 4th week of the 4th month, aripiprazole (Abilify tablets; produced by Otsuka Pharmaceutical Co., Ltd.) was orally administered in a dose of 3 mg/day. […] Furthermore, even when the administration of morphine was stopped from the 8th month, the NRS value remained at 0. […]

In the case of COCCCC/C(=N\OCCN)c1ccc(C(F)(F)F)cc1 [fluvoxamine], the NRS value is reported as 8 to 10.
